No constants are given. Whether binding was seen depends on the method and setting. Binding seen in cells or lysates may run through a third protein. For part of these data: A result given as binding can be weak or reduced; the word gives no strength.
Tests used:
[1] = target: FLAG-FBXO16 C-terminal deletion mutant (human (gene amplified from HEK293T cells)); assay: co-IP; lysates of HEK293T cells expressing FLAG-FBXO16 (stable or transient) or its deletion mutants, FLAG M2 beads 4 h at 4 °C, IP buffer (150 mM NaCl, 20 mM Tris-HCl pH 8.0, 0.5 mM EDTA, 0.5% NP-40), eluted with 3xFLAG peptide, blot for endogenous hnRNPL
[2] = target: FLAG-FBXO16 N-terminal deletion mutant (human (gene amplified from HEK293T cells)); assay: as above
[3] = target: FLAG-hnRNPL ΔRRM3 mutant (human (gene amplified from HEK293T cells)) (UniProt P14866); assay: co-IP; lysates of HEK293T cells transiently expressing FLAG-hnRNPL (1-583) or its deletion mutants, FLAG M2 beads, blot with anti-FBXO16 for endogenous FBXO16

binding [1] | binding [2] | binding [3] | Binder
no binding | binds | – | heterogeneous nuclear ribonucleoprotein L (hnRNPL), endogenous (protein, UniProt P14866 1-589) MSRRLLPRAEKRRRRLEQRQQPDEQRRRSGAMVKMAAAGGGGGGGRYYGGGSEGGRAPKRLKTDNAGDQHGGGGGGGGGAGAAGGGGGGENYDDPHKTPASPVVHIRGLIDGVVEADLVEALQEFGPISYVVVMPKKRQALVEFEDVLGACNAVNYAADNQIYIAGHPAFVNYSTSQKISRPGDSDDSRSVNSVLLFTILNPIYSITTDVLYTICNPCGPVQRIVIFRKNGVQAMVEFDSVQSAQRAKASLNGADIYSGCCTLKIEYAKPTRLNVFKNDQDTWDYTNPNLSGQGDPGSNPNKRQRQPPLLGDHPAEYGGPHGGYHSHYHDEGYGPPPPHYEGRRMGPPVGGHRRGPSRYGPQYGHPPPPPPPPEYGPHADSPVLMVYGLDQSKMNCDRVFNVFCLYGNVEKVKFMKSKPGAAMVEMADGYAVDRAITHLNNNFMFGQKLNVCVSKQPAIMPGQSYGLEDGSCSYKDFSESRNNRFSTPEQAAKNRIQHPSNVLHFFNAPLEVTEENFFEICDELGVKRPSSVKVFSGKSERSSSGLLEWESKSDALETLGFLNHYQMKNPNGPYPYTLKLCFSTAQHAS
– | – | no binding | FBXO16, endogenous (protein, UniProt Q8IX29 1-292) MMAFAPPKNTDGPKMQTKMSTWTPLNHQLLNDRVFEERRALLGKWFDKWTDSQRRRILTGLLERCSLSQQKFCCRKLQEKIPAEALDFTTKLPRVLSLYIFSFLDPRSLCRCAQVCWHWKNLAELDQLWMLKCLRFNWYINFSPTPFEQGIWKKHYIQMVKELHITKPKTPPKDGFVIADVQLVTSNSPEEKQSPLSAFRSSSSLRKKNNSGEKALPPWRSSDKHPTDIIRFNYLDNRDPMETVQQGRRKRNQMTPDFSRQSHDKKNKLQDRTRLRKAQSMMSRRNPFPLCP

Source: paper PMC8325689
